This is one part of the list. For some of these results: The source does not settle which construct or isoform was used.
Assays:
Experiment in all cases: protein microarray (ProtoArray v5.0), streptavidin-Alexa Fluor 647
Conditions in all cases: 3'-biotin; 20 mM Tris (pH 7.5), 5 mM MgCl2, 100 mM KCl, 0.1% Tween-20, A/T-rich and random oligonucleotide blockers; temperature not stated; high values mean tight binding
[1] = system: PRRT2 (human)
[2] = molecular target: PSAT1 (UniProt Q9Y617)
[3] = molecular target: T1, PSCD2 (UniProt Q99418)
T1 sequence: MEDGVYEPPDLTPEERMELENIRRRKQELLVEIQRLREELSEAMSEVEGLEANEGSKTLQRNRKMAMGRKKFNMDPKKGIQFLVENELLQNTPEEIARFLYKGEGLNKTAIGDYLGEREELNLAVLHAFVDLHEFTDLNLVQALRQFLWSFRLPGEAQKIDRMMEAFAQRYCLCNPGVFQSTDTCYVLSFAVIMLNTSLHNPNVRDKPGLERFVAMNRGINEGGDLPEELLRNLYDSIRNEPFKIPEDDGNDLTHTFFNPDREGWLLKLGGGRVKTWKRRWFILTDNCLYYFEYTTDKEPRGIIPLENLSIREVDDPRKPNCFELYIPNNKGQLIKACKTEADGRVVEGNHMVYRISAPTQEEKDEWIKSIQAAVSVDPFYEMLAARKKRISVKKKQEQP

By UniProt entry, the sequences of proteins in these tests, tags left out. Where a name states a change or a piece, a line headed by the entry shows the natural chain unless it says otherwise.
UniProt Q9Y617: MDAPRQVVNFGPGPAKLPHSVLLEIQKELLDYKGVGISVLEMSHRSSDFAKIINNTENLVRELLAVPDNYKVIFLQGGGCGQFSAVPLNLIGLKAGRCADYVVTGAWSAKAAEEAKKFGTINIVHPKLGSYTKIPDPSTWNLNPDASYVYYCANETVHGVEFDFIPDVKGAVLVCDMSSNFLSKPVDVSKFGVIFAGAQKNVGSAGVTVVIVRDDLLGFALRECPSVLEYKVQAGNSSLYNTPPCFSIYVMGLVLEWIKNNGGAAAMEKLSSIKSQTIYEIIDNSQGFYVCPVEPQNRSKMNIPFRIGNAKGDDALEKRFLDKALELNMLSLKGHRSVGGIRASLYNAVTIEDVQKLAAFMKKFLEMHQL

[4] = system: PSCD4 (human)
[5] = system: PSG11 (human)
[6] = system: PSIP1 (human)
[7] = system: PSMA4 (human)
[8] = system: PSMD10 (human)
[9] = system: PSMD11 (human)
[10] = system: PSMD5 (human)

“GGGGACAGGGGTATGGGGAGGGG [G4-3 biotinylated (CtG)]” gave a binding signal [1] of -0.324 z-score, a binding signal [2] of -0.334 z-score and a binding signal [3] of -0.324 z-score. The binding signal [4] was -0.309 z-score, the binding signal [5] was -0.331 z-score and the binding signal [6] was -0.33 z-score. It also gave a binding signal [7] of -0.333 z-score, a binding signal [8] of -0.327 z-score and a binding signal [9] of -0.33 z-score. The binding signal [10] was -0.34 z-score.

From paper PMC5996148
